Measurements from PubChem BioAssay AID493014 (National Center for Advancing Translational Sciences (NCATS), 2011).
Hit rate of the full screen: of about 340,000 compounds, about 170 (0.05%) were called active. The shares of active, inactive and inconclusive entries below differ from those in the screen. The call rests on the fitted dose curve; in most records, active means well fitted inhibition curve with a large enough effect in the signal ratio, with a control signal flat (not every such curve was filed as active); inconclusive means small, poorly fitted or top-dose-only effect, or effect the other way, or a change in a side signal; inactive means flat fitted curve, though single readings scatter; the % refers to the signal ratio. Where the call is inconclusive, the potency comes from a doubtful curve fit.

Experiment: qHTS Assay to Find Inhibitors of Chronic Active B-Cell Receptor Signaling;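 on activity change, negative = inhibition: plate controls were basal doxycycline-induced cells for no effect and cells given 10 µM MG132 for full effect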
Details: ABC-DLBCL IkBa-CBG/CBR reporter, luminescence ratio (green luciferase fused to IkBa over red control in TMD8 lymphoma cells), 4 h; activity change, negative = inhibition: at 46.1 µM (top of the series)
How it was run: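 Doxycycline induced both beetle luciferases in TMD8 lymphoma cells; IKK-driven degradation limits the IkappaBalpha-fused green signal, while red luminescence normalises for cell number and nonspecific effects. Compounds tested up to 46 uM, 4 hrs.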
Potency means the concentration at half of the fitted maximal effect.

Row | Structure (SMILES) | activity change, negative = inhibition | Potency
1 | Clc1cccc(Cl)c1CNc1ccc(N2CCCC2)cc1 | inconclusive: -6.44% | 
2 | Nc1ccc2nc(SCC(=O)c3ccccc3)sc2c1 | inactive | 
3 | CC12CCC(C(=O)N(Cc3ccccc3)Cc3ccccc3)(OC1=O)C2(C)C (centres undefined) |  | inconclusive: 3.66 µM [rising, full curve, poor fit]
4 | Cc1cc(NC(=O)CCC(=O)N(CC(=O)NCC2CCCO2)c2ccc(F)c(Cl)c2)no1 (centres undefined) | inconclusive: -9.26% | 
5 | Cc1[nH]c(=O)[nH]c(=O)c1S(=O)(=O)N1CCCC(C(=O)NCc2ccco2)C1 (centres undefined) |  | inconclusive: 29.1 µM [rising, single point]
6 | O=C(O)c1ccccc1NS(=O)(=O)c1cccc(-n2sc3ccccc3c2=O)c1 | inconclusive: -6% | 
7 | Cc1[nH]n(-c2ccccc2)c(=O)c1C1(C(F)(F)F)C(=O)N(c2ccccc2)C2=C1C(=O)CC(C)(C)C2 (centres undefined) | inconclusive: -32.3% | 
8 | C[C@@H]1CN([C@@H](C)CO)C(=O)c2cc(NC(=O)CCC(F)(F)F)ccc2O[C@H]1CN(C)S(=O)(=O)c1ccc(Cl)cc1 | inconclusive: -0.138% | 
9 | N#C/C(=C/c1ccc(N2CCCCC2)o1)c1cccc(F)c1 |  | inconclusive: 0.259 µM [rising, full curve, poor fit]
10 | O=CN/N=C/c1c(O)ccc2ccccc12 | inconclusive: -1.92% | 
11 | COc1ccc(N=C2S/C(=C\c3cc(C)n(C)c3C)C(=O)N2C)cc1 |  | inconclusive: 15.8 µM [falling, partial curve, poor fit]
12 | S=C(c1ccc(N2CCOCC2)cc1)N1CCOCC1 | inconclusive: 19.9% | 
13 | CCC(C)COC(=O)C(C#N)c1nc2ccccc2nc1N1CCCCC1 (centres undefined) | inactive | 
14 | CCOc1ccc(-n2cc(-c3ccccc3)c3c(N4CCC(C)CC4)ncnc32)cc1 | inconclusive: 23.9% | 
15 | O=C(O)c1cc(S(=O)(=O)Nc2ccc3oc(=O)sc3c2)ccc1O | inactive | 
16 | Cc1ccc(C2CC(c3cccc(Br)c3)Nc3nnnn32)cc1 (centres undefined) | inconclusive: 2.35% | 
17 | O=c1oc2ccc(Cl)cc2nc1/C=C(\O)c1ccco1 | inconclusive: -3.96% | 
18 | CC(OC(=O)c1ccc2c(c1)OCO2)C(=O)NC1CCCCC1C (centres undefined) | inconclusive: -8.57% | 
19 | CCOc1ccc(NC(=O)C(c2ccccn2)N(C(=O)CCl)c2ccc(OC)cc2)cc1 (centres undefined) |  | inconclusive: 18.4 µM [falling, single point]
20 | O=C(CCC1COc2ccccc2O1)NCC1COc2ccccc2O1 (centres undefined) |  | inconclusive: 2.59 µM [rising, full curve]
21 | CCC1(CC)NC(=O)N(CC(=O)OCC(=O)c2ccccc2OC)C1=O |  | inconclusive: 29.1 µM [falling, single point]
22 | COC(=O)c1c(-c2cc(C)ccc2C)csc1NC(=O)C1CC=CCC1C(=O)O (centres undefined) | inactive | 
23 | Cc1cccc(N(CC(=O)NCc2ccco2)C(=O)CCC(=O)Nc2ccccn2)c1 | inconclusive: -1.4% | 
24 | COc1ccccc1NC(=O)c1c([N+](=O)[O-])c(C(C)(C)C)nn1C | inconclusive: 8.55% | 
25 | Fc1ccc(-n2nnc(-c3ccnc4ccccc34)n2)cc1 |  | inconclusive: 35.5 µM [falling, single point]

Row | Structure (SMILES) | activity change, negative = inhibition | Potency
26 | CCOC(=O)N1CCN(C(=O)COC(=O)CNC(=O)c2ccc(OCC)c(OCC)c2)CC1 | inactive | 
27 | CC(C)NC(=O)COC(=O)c1ccc(NS(=O)(=O)c2ccc3c(c2)OCCO3)cc1 |  | inconclusive: 6.51 µM [falling, single point]
28 | O=C(N/N=C/c1ccc2c(c1)OCO2)c1cccc2ccccc12 |  | inconclusive: 7.08 µM [falling, partial curve]
29 | CCOC(=O)c1ccc(NC(=O)CN(c2ccc(C)cc2)S(=O)(=O)c2c(C)n[nH]c2C)cc1 | inconclusive: 0.802% | 
30 | Cc1cc(-n2c(C)cc(C(=O)CSc3nc4ccccc4c(=O)n3Cc3ccco3)c2C)no1 | inconclusive: 4.79% | 
31 | COC(=O)C(CCCCNC(=O)c1ccc([N+](=O)[O-])cc1)NC(=O)c1ccc([N+](=O)[O-])cc1 (centres undefined) | inconclusive: 0.954% | 
32 | O=C(Nc1ccc(Cl)c(Cl)c1)c1ccc(Cn2cc(Cl)cn2)cc1 | inconclusive: 21.4% | 
33 | CCC1(C)Cc2c(sc3nc(SC)nc(NCCN(C)C)c23)CO1 (centres undefined) | inconclusive: -6.65% | 
34 | O=C(Nc1ccccc1NC(=O)c1ccccc1Cl)c1ccccc1Cl | inactive | 
35 | Cn1nccc1C(=O)Nc1ccn(C23CC4CC(CC(C4)C2)C3)n1 | inconclusive: -1.79% | 
36 | NNC(=O)CSCc1ccc(Cl)cc1Cl | inconclusive: -2.81% | 
37 | COc1cc2c(cc1OC)C(COc1ccc(F)cc1)NCC2 (centres undefined) |  | inconclusive: 22.4 µM [falling, single point]
38 | CCCCCn1c(N)c(-c2nc3ccccc3o2)c2c([N+](=O)[O-])nn(C)c(=O)c21 | inconclusive: 0.193% | 
39 | CC(=O)c1ccccc1NC(=O)C1CC(=O)N(c2ccc3c(c2)OCCO3)C1 (centres undefined) | inconclusive: -1.77% | 
40 | CCOc1cc(C2c3c(oc4cc(C)c(Cl)cc4c3=O)C(=O)N2Cc2ccco2)ccc1O (centres undefined) | inactive | 
41 | CCOC(=O)N/N=C/c1ccc(C)o1 | inactive | 
42 | Clc1ccc(N=NN2CCOCC2)cc1 | inconclusive: 11.2% | 
43 | c1ccc(-c2noc(-c3ccco3)n2)nc1 |  | inconclusive: 25.9 µM [falling, single point]
44 | COc1cccc(C2C3=C(N=c4s/c(=C\c5ccccc5O)c(=O)n42)c2ccccc2CC3)c1OC (centres undefined) |  | inconclusive: 35.5 µM [falling, single point]
45 | Cn1nc(C(=O)NNC(=O)c2cccc(Cl)c2)ccc1=O | inconclusive: -18.5% | 
46 | C/C(=N\Nc1nc(C)cc(-c2ccccc2)n1)c1ccccc1 |  | inconclusive: 6.31 µM [falling, partial curve]
47 | CCc1nnc(NC(=O)c2ccc(-c3ccc([N+](=O)[O-])cc3Cl)o2)s1 | inconclusive: 17.4% | 
48 | Cc1ccc(N(C(=O)c2csnn2)C(C(=O)NC2CCCCC2)c2ccccn2)cc1 (centres undefined) | inconclusive: -23.7% | 
49 | CN(C)c1cccc(C(=O)NCc2ccc(Cl)cc2)c1 | inconclusive: 13.5% | 

Three compounds already listed, arranged by SMILES length, ascending:
Row | Structure (SMILES) | activity change, negative = inhibition | Potency
42 | Clc1ccc(N=NN2CCOCC2)cc1 | inconclusive: 11.2% | 
41 | CCOC(=O)N/N=C/c1ccc(C)o1 | inactive | 
48 | Cc1ccc(N(C(=O)c2csnn2)C(C(=O)NC2CCCCC2)c2ccccn2)cc1 (centres undefined) | inconclusive: -23.7% | 
